The record followed here is publication PMC4956120.

Chains of the proteins cited; added tags and fusions are not shown.
UniProt P32114: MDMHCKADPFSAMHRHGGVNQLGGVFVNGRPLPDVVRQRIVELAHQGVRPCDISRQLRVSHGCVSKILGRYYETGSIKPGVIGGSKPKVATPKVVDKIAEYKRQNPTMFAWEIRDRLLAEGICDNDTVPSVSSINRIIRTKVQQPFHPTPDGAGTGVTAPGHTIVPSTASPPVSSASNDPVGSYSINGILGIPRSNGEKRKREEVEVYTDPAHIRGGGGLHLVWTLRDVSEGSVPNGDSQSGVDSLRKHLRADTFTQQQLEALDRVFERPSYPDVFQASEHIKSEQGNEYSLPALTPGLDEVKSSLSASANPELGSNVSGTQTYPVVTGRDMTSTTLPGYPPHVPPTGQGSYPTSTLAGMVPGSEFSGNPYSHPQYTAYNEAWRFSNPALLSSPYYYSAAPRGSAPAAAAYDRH

One assay deals with Flag-tagged Osr1 (UniProt Q9WVG7). Put plainly: co-IP; HEK293T co-transfected, 48 h; lysed in RIPA buffer; anti-Flag (M2) on protein-G dynabeads, 4°C overnight, five RIPA washes; blot with anti-c-Myc.
A further assay deals with Myc-tagged Osr1 (UniProt Q9WVG7). Put plainly: co-IP; HEK293T co-transfected, 48 h; lysed in RIPA buffer; anti-c-Myc antibody on protein-G agarose beads, 4°C overnight, five RIPA washes; blot with anti-Flag.
Assay [1] concerns the target TY1-Osr1 fusion protein (endogenous Osr1 with a 2xTY1 epitope tag at the N-terminus) (mouse (endogenous in E16.5 kidney)) (UniProt Q9WVG7). Put plainly: co-IP; E16.5 kidneys of Osr1^TY1/TY1 and wildtype embryos; lysis buffer 50 mM HEPES pH 7.5, 140 mM NaCl, 1 mM EDTA, 0.5% NP-40, 0.25% TX-100; anti-TY1 antibody on dynabeads, 4°C overnight; blot with anti-Six2 and anti-Wt1.

No constants are given. Whether binding was seen depends on the method and setting. In cells and extracts the contact can be indirect. Some results given as binding are weak or reduced against the parent protein; the word gives no strength. For some of these results: Sequences can lack the tags named with a protein.

As to “Myc-tagged Pax2 (from UniProt P32114 1-414)”, the binding result with Flag-tagged Osr1 is “no binding”.

B1: Flag-tagged Lhx1 (protein, UniProt P63006 1-406)
chain: MVHCAGCKRPILDRFLLNVLDRAWHVKCVQCCECKCNLTEKCFSREGKLYCKNDFFRCFGTKCAGCAQGISPSDLVRRARSKVFHLNCFTCMMCNKQLSTGEELYIIDENKFVCKEDYLSNSSVAKENSLHSATTGSDPSLSPDSQDPSQDDAKDSESANVSDKEGGSNENDDQNLGAKRRGPRTTIKAKQLETLKAAFAATPKPTRHIREQLAQETGLNMRVIQVWFQNRRSKERRMKQLSALGARRHAFFRSPRRMRPLVDRLEPGELIPNGPFSFYGDYQSEYYGPGGNYDFFPQGPPSSQAQTPVDLPFVPSSGPSGTPLGGLDHPLPGHHPSSEAQRFTDILAHPPGDSPSPEPSLPGPLHSMSAEVFGPSPPFSSLSVNGGASYGNHLSHPPEMNEAAVW
Take B1: the binding result with Myc-tagged Osr1 is reported as “no binding”.

B2: Flag-tagged Six2 (protein, UniProt Q62232 1-296)
chain: MSMLPTFGFTQEQVACVCEVLQQGGNIERLGRFLWSLPACEHLHKNESVLKAKAVVAFHRGNFRELYKILESHQFSPHNHAKLQQLWLKAHYIEAEKLRGRPLGAVGKYRVRRKFPLPRSIWDGEETSYCFKEKSRSVLREWYAHNPYPSPREKRELAEATGLTTTQVSNWFKNRRQRDRAAEAKERENSENSNSSSHNPLASSLNGSGKSVLGSSEDEKTPSGTPDHSSSSPALLLSPPPPPGLPSLHSLGHPPGPSAVPVPVPGGGGADPLQHHHSLQDSILNPMSANLVDLGS
Turning to B2, the binding entry with Myc-tagged Osr1 is “binds”.

B3: endogenous Six2 (protein, UniProt Q62232 1-296)
chain: B2 chain
Turning to B3, the binding entry in assay [1] is recorded as “binds”.
